Source: PubChem BioAssay AID220 (DTP/NCI, 2004)
The list does not hold the whole screen: it is rich in T/C values a quarter to a half above the control, in often repeated tests (any T/C) and in doses without a T/C. Further doses and runs are listed elsewhere. T/C: endpoint of the treated group in % of that of the vehicle group. Some T/C values are followed by the survivors on the day toxicity was checked, most often the fifth; without a count, all were alive then. Schedules are NCI's codes, taken here to give the interval after Q, in days (D) or hours (H), and the number of doses after X. Some doses have a count of surviving animals in place of a T/C: the source files T/C as zero there, which appears to mark a toxic dose or a test without result, not a measured value. Survivors were counted at the toxicity check, usually on the fifth day, unless a day is given; later deaths do not show. Some doses were run more than once; the results are listed from low to high.

Tested on: CD8F1 mice, subcutaneous mammary adenocarcinoma, T/C%
Assay: NCI In Vivo Anticancer Drug Screen. Data for tumor model Mammary Adenocarcinoma CD8F1 (subcutaneous) in CD8F1
Conditions: higher T/C = larger tumour; for T/C: evaluated on day 30
In short: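 Compound-treated versus vehicle-treated mice with transplantable tumors; survival or tumor size compared as T/C.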

[1] = T/C endpoint: median tumor weight change, dose: 500.0 mg/kg/injection, schedule: Q01DX001 (ip), vehicle: saline with Tween-80

ClC1=C(Cl)C(Cl)=C(Cl)C1=Cc1ccccc1
survivor count (T/C endpoint: median tumor weight change, dose: 125.0 mg/kg/injection, schedule: Q01DX001 (ip), vehicle: saline with Tween-80): 1 of 10 on day 24 | survivor count (T/C endpoint: median tumor weight change, dose: 250.0 mg/kg/injection, schedule: Q01DX001 (ip), vehicle: saline with Tween-80): 0 of 10 on day 24 | survivor count [1]: 0 of 10 on day 24 | survivor count (T/C endpoint: median tumor weight change, dose: 600.0 mg/kg/injection, schedule: Q01DX001 (ip), vehicle: saline with Tween-80): 1 of 10 on day 39 | survivor count (T/C endpoint: median tumor weight change, dose: 1200.0 mg/kg/injection, schedule: Q01DX001 (ip), vehicle: saline with Tween-80): 0 of 10 on day 39

CCOC(=O)c1[nH]c2cccc3c2c1CC(Br)C3=O (centres undefined)
survivor count [1]: 4 of 10 on day 31 | survivor count (T/C endpoint: median tumor weight change, dose: 1000.0 mg/kg/injection, schedule: Q01DX001 (ip), vehicle: saline with Tween-80): 3 of 10 on day 31 | survivor count (T/C endpoint: median tumor weight change, dose: 2000.0 mg/kg/injection, schedule: Q01DX001 (ip), vehicle: saline with Tween-80): 0 of 10 on day 31

C=Cc1cnc([N+](=O)[O-])n1C
survivor count (T/C endpoint: median tumor weight (est.), dose: 50.0 mg/kg/injection, schedule: Q07DX005 (ip), vehicle: Klucel (hydroxypropylcellulose) (HPC)): 5 of 10 on day 30 | survivor count (T/C endpoint: median tumor weight (est.), dose: 400.0 mg/kg/injection, schedule: Q07DX005 (ip), vehicle: Klucel (hydroxypropylcellulose) (HPC)): 0 of 10 on day 30

COC(=O)Nc1nc2ccc(SC)cc2c(=O)[nH]1
survivor count (T/C endpoint: median tumor weight change, dose: 1000.0 mg/kg/injection, schedule: Q01DX001 (ip), vehicle: Klucel (hydroxypropylcellulose) (HPC)): 4 of 10 on day 35 | survivor count (T/C endpoint: median tumor weight change, dose: 2000.0 mg/kg/injection, schedule: Q01DX001 (ip), vehicle: Klucel (hydroxypropylcellulose) (HPC)): 0 of 10 on day 35

Cc1cn(C2CC(F)C(CO)O2)c(=O)[nH]c1=O (centres undefined)
survivor count (T/C endpoint: median tumor weight change, dose: 2000.0 mg/kg/injection, schedule: Q01DX001 (ip), vehicle: suspension in saline): 6 of 10 on day 29

NNC(=O)c1ccncc1
survivor count (T/C endpoint: median tumor weight change, dose: 250.0 mg/kg/injection, schedule: Q01DX001 (ip), vehicle: saline): 0 of 10 on day 28 | survivor count (T/C endpoint: median tumor weight change, dose: 500.0 mg/kg/injection, schedule: Q01DX001 (ip), vehicle: saline): 0 of 10 on day 28 | survivor count (T/C endpoint: median tumor weight change, dose: 1000.0 mg/kg/injection, schedule: Q01DX001 (ip), vehicle: saline): 0 of 10 on day 28

CN1CCN(Cc2nc3cccc4c3c([n+]2[O-])-c2ccccc2-4)CC1
survivor count (T/C endpoint: median tumor weight (est.), dose: 400.0 mg/kg/injection, schedule: Q07DX005 (ip), vehicle: saline with Tween-80): 0 of 10 on day 30

O=C/C(Cl)=C(/Cl)C(=O)O
T/C (T/C endpoint: median tumor weight (est.), dose: 20.0 mg/kg/injection, schedule: Q07DX005 (ip), vehicle: saline with Tween-80): 142 % of control [9 of 10 alive on day 30] | survivor count (T/C endpoint: median tumor weight (est.), dose: 40.0 mg/kg/injection, schedule: Q07DX005 (ip), vehicle: saline with Tween-80): 2 of 10 on day 30 | survivor count (T/C endpoint: median tumor weight (est.), dose: 80.0 mg/kg/injection, schedule: Q07DX005 (ip), vehicle: saline with Tween-80): 0 of 10 on day 30

CCC/C=C/C=C/C(=O)OC1/C(=C/C(=O)OC)CC2CC(C(C)O)OC(=O)CC(O)CC3CC(OC(C)=O)C(C)(C)C(O)(CC4C/C(=C/C(=O)OC)CC(/C=C/C(C)(C)C1(O)O2)O4)O3 (centres undefined)
survivor count (T/C endpoint: median tumor weight change, dose: 0.19 mg/kg/injection, schedule: Q01DX001 (ip), vehicle: saline + alcohol): 6 of 10 on day 35 | survivor count (T/C endpoint: median tumor weight change, dose: 0.38 mg/kg/injection, schedule: Q01DX001 (ip), vehicle: saline + alcohol): 0 of 10 on day 35 | survivor count (T/C endpoint: median tumor weight change, dose: 0.75 mg/kg/injection, schedule: Q01DX001 (ip), vehicle: saline + alcohol): 0 of 10 on day 35 | survivor count (T/C endpoint: median tumor weight change, dose: 1.5 mg/kg/injection, schedule: Q01DX001 (ip), vehicle: saline + alcohol): 0 of 10 on day 35

Cc1c2c(ccc3ccccc32)c[n+]2ccccc12
T/C (T/C endpoint: median tumor weight (est.), dose: 6.25 mg/kg/injection, schedule: Q07DX005 (ip), vehicle: saline): 140 % of control [8 of 10 alive on day 30] | T/C (T/C endpoint: median tumor weight (est.), dose: 12.5 mg/kg/injection, schedule: Q07DX005 (ip), vehicle: saline): 130 % of control [9 of 10 alive on day 30] | survivor count (T/C endpoint: median tumor weight (est.), dose: 25.0 mg/kg/injection, schedule: Q07DX005 (ip), vehicle: saline): 0 of 10 on day 30 and 5 of 10 on day 30 | survivor count (T/C endpoint: median tumor weight (est.), dose: 50.0 mg/kg/injection, schedule: Q07DX005 (ip), vehicle: saline): 0 of 10 on day 30 | survivor count (T/C endpoint: median tumor weight (est.), dose: 100.0 mg/kg/injection, schedule: Q07DX005 (ip), vehicle: saline): 0 of 10 on day 30
